# At least one peptide structure holds a part that was inferred or is arguable (an end, a ring closure or a residue). Peptide text beside a SMILES is read from it.
# Key:
# ERF and AKT = assay: Western blot of proliferation-related factors (phospho-AKT, phospho-ERK) in hair follicle dermal papilla cells; assay type: cell-based, human; conditions: 5 µM, or 50 µM, 24 hours, FIGS. 3 and 4
# Procedure: In this experimental example, effects of a peptide according to an embodiment on activation of factors related to proliferation of human hair follicle dermal papilla cells were examined. Specifically, human hair follicle dermal papilla cells were seeded on a 6-well plate at a density of 4×10^5 cells/well, followed by incubation in a mesenchymal stem cell complete medium for 24 hours. Thereafter, a peptide according to an embodiment was aliquoted thereinto at a concentration of […], 5 µM, or 50 µM, followed by incubation for 24 hours at 37 °C. Then, the culture was washed with PBS, and 100 µL of a lysis buffer to prepare a cell lysate. Subsequently, bicinchoninic acid (BCA) was quantified to prepare an equal amount of a protein sample, followed by electrophoresis using a 10 % SDS-PAGE gel. Thereafter, proteins separated by the SDS-PAGE were transferred to a PVDF membrane, and the reaction was blocked using a 5 % skim milk at room temperature for 30 minutes. Then, phospho-AKT and phospho-ERK (cell signaling, USA) antibodies were diluted in a 3 % BSA at 1:1000 and reacted with the blocked PVDF membrane at 4 °C for 16 hours. Subsequently, the reactants were washed with 0.1 % PBS-T (0.1 % Tween-20 in PBS) three times each for 15 minutes and reacted for 1 hour with a secondary antibody diluted with 5 % skim milk at 1:2000. […]
# DKK-1 (Dickkopf-1) = assay: DKK-1 expression (Western blot) in DHT-treated hair follicle dermal papilla cells; assay type: cell-based, human; conditions: dihydrotestosterone (DHT) added; 5 µM, or 50 µM; FIGS. 9 and 10
# [1] = system: HOXC13, MSX2, and FOXN1 in human hair germinal matrix cells (HHGMCs); assay: RT-PCR of activators of germinal matrix cells; assay type: cell-based; conditions: RNA level; 5 µM, or 50 µM, 24 hours; FIGS. 13 and 14
# Procedure: In this experimental example, effects of a peptide according to an embodiment on expression of Homeobox protein Hox-C13 (HOXC13), Msh homeobox 2 (MSX2), and Forkhead box protein N1 (FOXN1), which are transcription factors related to activation of human hair germinal matrix cells ([…]), were examined. Specifically, human hair germinal matrix cells were seeded on a 6-well plate at a density of 4×10^5 cell/well, followed by incubation for 24 hours in a mesenchymal stem cell complete medium. Subsequently, the culture medium was replaced with a serum free mesenchymal stem cell complete medium, followed by incubation for 24 hours. Thereafter, a peptide according to an embodiment was aliquoted thereinto at a concentration of […], 5 μM, or 50 μM, followed by incubation for 24 hours at 37 °C. Then, gene expression was examined in the RNA level in the same manner as in Experimental Example 2-3 by using primers of Table 4 below. Meanwhile, a untreated group was used as a control, and a group treated with 50 nM EGF was used as a positive control.
# [2] = system: LEF-1, c-Myc, and cyclin D1; assay: RT-PCR of beta-catenin downstream target genes in hair follicle dermal papilla cells; assay type: cell-based, human; conditions: RNA level, FIG. 7 (Peptide-1: c-Myc, cyclin D1), FIG. 8 (Peptide-2: LEF-1, c-Myc, cyclin D1)
# Procedure: In addition, a change in expression levels of lymphoid enhancer-binding factor-1 (LEF-1), c-Myc, and cyclin D1, which are downstream target genes of activating mechanism of beta-catenin, was examined. To this end, human hair follicle dermal papilla cells were incubated in the same manner in Experimental Example 2-2 and treated with a peptide according to an embodiment. Thereafter, the culture was washed with PBS and treated with 300 µL of easy blue (intron, Korea) to extract RNAs. Then, the extract RNAs were quantified by Nano drop, and cDNA was synthesized by using the RNAs as a template and using a cDNA synthesis kit (enzynomics, Korea). Then, polymerase chain reaction (PCR) was carried out using primers of Table 2 below and a PCR premix (enzynomics, Korea), followed by electrophoresis using a 1.5 % agarose gel, and gene expression was examined in the RNA level by a Bio-Rad gel image system.
# beta-catenin = assay: Nuclear beta-catenin Western blot in hair follicle dermal papilla cells; assay type: cell-based, human; conditions: nuclear proteins, HDAC1 as nuclear marker, FIGS. 5 and 6
# Procedure: In this experimental example, effects of a peptide according to an embodiment on proliferation mechanism of human hair follicle dermal papilla cells were examined. Specifically, human hair follicle dermal papilla cells were incubated in the same manner as in Experimental Example 2-2, and treated with a peptide according to an embodiment. Then, nuclear proteins were isolated from the culture by using a nuclear protein extraction kit (Thermo scientific, USA). Subsequently, expression levels of proteins were examined in the same manner as in Experimental Example 2-2 by using beta-catenin (cell signaling, USA) and HDAC1 (santa cruz, USA) antibodies. Meanwhile, a untreated group was used as a control, and a group treated with 10 ng/mL recombinant human Wnt-3a protein (rhWnt-3a, R&D systems (USA, MN)) was used as a positive control.
# [3] = system: human hair follicle dermal papilla cells (HFDPCs); assay: Proliferation of hair follicle dermal papilla cells (MTT); assay type: cell-based; conditions: 5 µM, or 50 µM, 72 hours, absorbance at 540 nm, FIGS. 1 and 2
# Procedure: In this experimental example, effects of a peptide according to an embodiment on proliferation of human hair follicle dermal papilla cells were examined by evaluating a change in viability of the human hair follicle dermal papilla cells (HFDPCs). Specifically, human hair follicle dermal papilla cells were seeded on a 96-well plate at a density of 4×10^3 cells/well, followed by incubation in a mesenchymal stem cell complete medium for 24 hours. Subsequently, the culture medium was replaced with a serum free mesenchymal stem cell complete medium, followed by incubation for 24 hours. Thereafter, a peptide according to an embodiment was aliquoted thereinto at a concentration of […], 5 µM, or 50 µM, followed by incubation for 72 hours at 37 °C. Then, the culture was washed with PBS, and 10 µL of a 5 mg/ml MTT solution was aliquoted into each well. After incubating the culture in a CO2 incubator for 4 hours, the culture medium was removed, and 100 µL of dimethyl sulfoxide (DMSO) was added thereto, followed by stirring for 10 minutes. Thereafter, absorbance was measured at a wavelength of 540 nm by using a spectrophotometer. Meanwhile, a untreated group was used as a control, and a group treated with 1 µM EGF was used as a positive control.
# [4] = system: Ha3-II, Keratin 5, Keratin 14, and Keratin 19 in human hair outer root sheath cells (HHORSCs); assay: RT-PCR of activators of outer root sheath cells; assay type: cell-based; conditions: RNA level; 5 µM, or 50 µM, 24 hours; FIGS. 11 and 12
# Procedure: In this experimental example, effects of a peptide according to an embodiment on expression of type I cuticular Ha3-II (Ha3-II), Keratin 5, Keratin 14, and Keratin 19, which are cytokine related to activation of human hair outer root sheath cells (HHORSCs), were examined. Specifically, human hair outer root sheath cells were seeded on a 6-well plate at a density of 4×10^5 cell/well, followed by incubation for 24 hours in a mesenchymal stem cell complete media. Subsequently, the culture medium was replaced with a serum free mesenchymal stem cell complete medium, followed by incubation for 24 hours. Thereafter, a peptide according to an embodiment was aliquoted thereinto at a concentration of […], 5 µM, or 50 µM, followed by incubation for 24 hours at 37 °C. Then, gene expression was examined in the RNA level in the same manner as in Experimental Example 2-3 by using primers of Table 3 below. Meanwhile, a untreated group was used as a control, and a group treated with 50 nM EGF was used as a positive control.
structure (smiles),measurement,setting,value
"N[C@@H](CCC(=O)O)C(=O)N[C@@H](CCC(=O)O)C(=O)O [Peptide-2, Glu (E)-Glu (E)] (H-Glu-Glu-OH)",phosphorylation of ERF and AKT,ERF and AKT,induced
same,expression of DKK-1,DKK-1 (Dickkopf-1),inhibited
same,"expression of HOXC13, MSX2, and FOXN1",[1],increased
same,"expression of LEF-1, c-Myc, and/or cyclin D1",[2],increased
same,migration of beta-catenin from cytoplasm to a nucleus,beta-catenin,confirmed
same,proliferation of dermal papilla cells,[3],promoted
same,"expression of Ha3-II, Keratin 14, and Keratin 19",[4],increased

# Reference: patent publication EP4620962A1, “PEPTIDE HAVING ACTIVITIES TO PROMOTE HAIR GROWTH AND AMELIORATE DAMAGED HAIR, AND USE THEREOF” (Caregen Co., Ltd., priority 2022, dated 2025)
